{"source": "paper PMC3709733", "about": "“A High Molecular-Mass Anoxybacillus sp. SK3-4 Amylopullulanase: Characterization and Its Relationship in Carbohydrate Utilization” (International Journal of Molecular Sciences, 2013)", "test_system": "T1, ApuASK (amylopullulanase)", "T1 construct": "precursor 2033 residues incl; 30-residue signal peptide; monomer; no tag", "test": "DNS reducing-sugar assay, pullulan substrate", "type": "biochemical, Anoxybacillus sp. SK3-4", "conditions": "0.1% (w/v) inhibitor; value is remaining activity, no additive = 100%; 1% pullulan; 100 mM potassium phosphate pH 7.5; 60 °C", "excerpt": "DNS reducing-sugar assay, pullulan substrate on ApuASK (amylopullulanase)"}
{"compound": "OC[C@H]1O[C@@H]2O[C@H]3[C@H](O)[C@@H](O)[C@@H](O[C@H]4[C@H](O)[C@@H](O)[C@@H](O[C@H]5[C@H](O)[C@@H](O)[C@@H](O[C@H]6[C@H](O)[C@@H](O)[C@@H](O[C@H]7[C@H](O)[C@@H](O)[C@@H](O[C@H]1[C@H](O)[C@H]2O)O[C@@H]7CO)O[C@@H]6CO)O[C@@H]5CO)O[C@@H]4CO)O[C@@H]3CO", "note": "[α-CD]", "values": [{"measurement": "Relative activity (%)", "value": "19 ± 0.02", "unit": "%"}]}
{"compound": "OC[C@H]1O[C@@H]2O[C@H]3[C@H](O)[C@@H](O)[C@@H](O[C@H]4[C@H](O)[C@@H](O)[C@@H](O[C@H]5[C@H](O)[C@@H](O)[C@@H](O[C@H]6[C@H](O)[C@@H](O)[C@@H](O[C@H]7[C@H](O)[C@@H](O)[C@@H](O[C@H]8[C@H](O)[C@@H](O)[C@@H](O[C@H]1[C@H](O)[C@H]2O)O[C@@H]8CO)O[C@@H]7CO)O[C@@H]6CO)O[C@@H]5CO)O[C@@H]4CO)O[C@@H]3CO", "note": "[β-CD]", "values": [{"measurement": "Relative activity (%)", "value": "6 ± 0.01", "unit": "%"}]}
{"compound": "OC[C@H]1O[C@@H]2O[C@H]3[C@H](O)[C@@H](O)[C@@H](O[C@H]4[C@H](O)[C@@H](O)[C@@H](O[C@H]5[C@H](O)[C@@H](O)[C@@H](O[C@H]6[C@H](O)[C@@H](O)[C@@H](O[C@H]7[C@H](O)[C@@H](O)[C@@H](O[C@H]8[C@H](O)[C@@H](O)[C@@H](O[C@H]9[C@H](O)[C@@H](O)[C@@H](O[C@H]1[C@H](O)[C@H]2O)O[C@@H]9CO)O[C@@H]8CO)O[C@@H]7CO)O[C@@H]6CO)O[C@@H]5CO)O[C@@H]4CO)O[C@@H]3CO", "note": "[γ-CD]", "values": [{"measurement": "Relative activity (%)", "value": "2 ± 0.01", "unit": "%"}]}
